Reference: article PMC8019791
These are yes or no findings as the source states them, for the method shown. In cells and extracts the contact can be indirect. Some results given as binding are weak or reduced against the parent protein; the word gives no strength. For some assays here: Tags and fused reporters may be left off the sequences shown.

The chains behind the UniProt entries cited, without tags or fusion partners.
UniProt Q15643: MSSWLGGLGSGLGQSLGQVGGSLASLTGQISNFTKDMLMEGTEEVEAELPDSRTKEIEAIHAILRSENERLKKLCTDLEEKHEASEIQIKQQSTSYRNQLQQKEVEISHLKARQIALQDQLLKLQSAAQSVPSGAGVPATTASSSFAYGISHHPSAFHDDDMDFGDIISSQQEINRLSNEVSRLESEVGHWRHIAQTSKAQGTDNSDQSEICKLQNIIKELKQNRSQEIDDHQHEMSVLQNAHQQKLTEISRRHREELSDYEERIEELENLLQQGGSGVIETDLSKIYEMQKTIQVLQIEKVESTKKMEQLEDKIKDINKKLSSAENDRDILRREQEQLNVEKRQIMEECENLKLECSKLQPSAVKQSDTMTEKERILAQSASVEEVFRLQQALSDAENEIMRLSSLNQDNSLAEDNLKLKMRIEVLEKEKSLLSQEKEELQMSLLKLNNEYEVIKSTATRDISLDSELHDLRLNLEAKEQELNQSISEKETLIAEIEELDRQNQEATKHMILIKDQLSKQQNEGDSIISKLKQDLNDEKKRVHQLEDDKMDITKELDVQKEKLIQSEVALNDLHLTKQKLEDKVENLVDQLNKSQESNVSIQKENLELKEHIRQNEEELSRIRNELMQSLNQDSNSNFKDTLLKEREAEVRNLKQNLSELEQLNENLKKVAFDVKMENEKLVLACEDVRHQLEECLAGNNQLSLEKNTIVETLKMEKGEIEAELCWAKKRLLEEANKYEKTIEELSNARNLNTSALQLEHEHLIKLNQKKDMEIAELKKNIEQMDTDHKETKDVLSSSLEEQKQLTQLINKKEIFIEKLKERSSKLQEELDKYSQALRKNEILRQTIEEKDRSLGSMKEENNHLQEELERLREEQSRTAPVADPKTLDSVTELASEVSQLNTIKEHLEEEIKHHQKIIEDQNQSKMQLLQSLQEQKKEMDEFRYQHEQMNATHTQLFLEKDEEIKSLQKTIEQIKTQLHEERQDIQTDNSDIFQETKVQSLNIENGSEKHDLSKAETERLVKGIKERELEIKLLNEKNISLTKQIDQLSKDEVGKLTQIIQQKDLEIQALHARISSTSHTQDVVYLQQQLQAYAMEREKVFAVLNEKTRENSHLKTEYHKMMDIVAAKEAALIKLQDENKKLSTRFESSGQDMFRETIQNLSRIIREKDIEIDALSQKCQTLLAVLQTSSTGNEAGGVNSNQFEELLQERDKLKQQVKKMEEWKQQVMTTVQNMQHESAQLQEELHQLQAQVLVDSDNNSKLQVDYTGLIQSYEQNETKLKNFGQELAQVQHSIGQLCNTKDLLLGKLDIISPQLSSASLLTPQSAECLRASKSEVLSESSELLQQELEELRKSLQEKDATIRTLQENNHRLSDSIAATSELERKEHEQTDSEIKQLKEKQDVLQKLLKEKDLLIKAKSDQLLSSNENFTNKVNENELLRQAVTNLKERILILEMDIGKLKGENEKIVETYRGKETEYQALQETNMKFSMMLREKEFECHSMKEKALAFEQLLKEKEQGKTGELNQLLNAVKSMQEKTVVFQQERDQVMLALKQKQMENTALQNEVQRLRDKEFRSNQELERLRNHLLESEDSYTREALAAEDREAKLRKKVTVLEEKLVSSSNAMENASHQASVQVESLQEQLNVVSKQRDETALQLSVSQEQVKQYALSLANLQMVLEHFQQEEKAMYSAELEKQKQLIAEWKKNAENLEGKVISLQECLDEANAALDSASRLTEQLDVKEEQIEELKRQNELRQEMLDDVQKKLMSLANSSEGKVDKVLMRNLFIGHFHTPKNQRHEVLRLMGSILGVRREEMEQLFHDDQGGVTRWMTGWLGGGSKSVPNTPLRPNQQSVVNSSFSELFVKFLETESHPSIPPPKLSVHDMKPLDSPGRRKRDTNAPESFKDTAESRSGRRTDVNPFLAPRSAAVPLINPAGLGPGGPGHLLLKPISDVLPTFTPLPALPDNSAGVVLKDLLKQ
UniProt Q676U5: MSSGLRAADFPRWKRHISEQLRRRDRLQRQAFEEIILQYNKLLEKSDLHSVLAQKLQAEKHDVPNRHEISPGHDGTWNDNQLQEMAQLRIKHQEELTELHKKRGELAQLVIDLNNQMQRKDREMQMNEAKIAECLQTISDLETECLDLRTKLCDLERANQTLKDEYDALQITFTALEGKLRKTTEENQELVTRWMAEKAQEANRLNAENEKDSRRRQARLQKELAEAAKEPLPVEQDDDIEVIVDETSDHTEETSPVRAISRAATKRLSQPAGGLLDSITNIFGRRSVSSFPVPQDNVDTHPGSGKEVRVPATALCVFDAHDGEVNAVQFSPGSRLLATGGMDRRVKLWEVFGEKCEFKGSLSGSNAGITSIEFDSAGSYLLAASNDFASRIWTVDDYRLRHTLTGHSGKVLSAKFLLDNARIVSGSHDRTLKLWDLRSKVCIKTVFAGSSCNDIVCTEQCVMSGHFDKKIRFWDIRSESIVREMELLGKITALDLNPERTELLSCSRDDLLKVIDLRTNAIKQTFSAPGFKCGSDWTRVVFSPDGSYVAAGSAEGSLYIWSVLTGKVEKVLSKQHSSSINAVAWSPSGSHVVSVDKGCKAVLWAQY

Legend:
CC IFT20-GST = target: T1, CC IFT20-GST (UniProt Q8IY31); experiment: pull-down; recombinant GST fusion proteins on GSH-Sepharose incubated 2 h at 4°C with precleared postnuclear supernatants of Jurkat cells (5 x 10^7 cells/sample, 0.5% Triton X-100); 4 washes; immunoblot; only the target purified
T1 sequence: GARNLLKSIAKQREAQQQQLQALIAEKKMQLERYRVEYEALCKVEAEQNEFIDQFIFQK

IFT20-GST = IFT20-GST (UniProt Q8IY31); experiment: as above
[1] = target: IFT20 (human (endogenous in Jurkat)) (UniProt Q8IY31); experiment: co-IP; postnuclear supernatants (2 mg) of Jurkat T cells (control and IFT20KD; also IFT20-GFP or ΔCC IFT20-GFP transfectants) lysed in 0.5% Triton X-100, 20 mM Tris-HCl pH 8, 150 mM NaCl; IP 2 h at 4°C with anti-IFT20, anti-ATG16L1 or anti-BECLIN 1 antibody and protein A-Sepharose; immunoblot
ΔCC IFT20-GST = ΔCC IFT20-GST (UniProt Q8IY31); experiment: pull-down; recombinant GST fusion proteins on GSH-Sepharose incubated 2 h at 4°C with precleared postnuclear supernatants of Jurkat cells (5 x 10^7 cells/sample, 0.5% Triton X-100); 4 washes; immunoblot; only the target purified

Substance | binding (CC IFT20-GST) | binding (IFT20-GST) | binding [1] | binding (ΔCC IFT20-GST)
GMAP210 (from UniProt Q15643 1-1979) | binds | binds | – | –
ATG16L1 (from UniProt Q676U5 1-607) | – | binds | binds | binds
